# Results as given in the supplement of paper PMC8728848.
# The list shows a part of the results.
# B1: a L Fucosidase (Thermotoga maritima) (protein)
# chain: MASMKPRYKPDWESLREHTVPKWFDKAKFGIFIHWGIYSVPGWATPTGELGKVPMDAWFFQNPYAEWYENSLRIKESPTWEYHVKTYGENFEYEKFADLFTAEKWDPQEWADLFKKAGAKYVIPTTKHHDGFCLWGTKYTDFNSVKRGPKRDLVGDLAKAVREAGLRFGVYYSGGLDWRFTTEPIRYPEDLSYIRPNTYEYADYAYKQVMELVDLYLPDVLWNNMGWPEKGKEDLKYLFAYYYNKHPEGSVNDRWGVPHWDFKTAEYHVNYPGDLPGYKWEFTRGIGLSFGYNRNEGPEHMLSVEQLVYTLVDVVSKGGNLLLNVGPKGDGTIPDLQKERLLGLGEWLRKYGDAIYGTSVWERCCAKTEDGTEIRFTRKCNRIFVIFLGIPTGEKIVIEDLNLSAGTVRHFLTGERLSFKNVGKNLEITVPKKLLETDSITLVLEAVEE
# How the values were obtained:
# Test in all cases: glycan array binding signal (z-score within array); higher = stronger binding
# Conditions in all cases: glycan notation: IUPAC condensed, linker removed; mutation: D224N
# [1] = target: Fuc(a1-3)[Gal3S(b1-4)]GlcNAc
# Procedure, shortened: (§1)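 The binding signal is a Z-score computed within each array and averaged over linkers. Arrays of the same protein sequence at different concentrations or buffers were also averaged together. Data originate from 3228 arrays in the Consortium for Functional Glycomics database, kept only where the protein sequence was available.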
# [2] = target: Fuc(a1-3)[Gal3S(b1-4)]GlcNAc6S
# Procedure, shortened: as §1
# [3] = target: Fuc(a1-3)[GalNAc(b1-4)]GlcNAc
# Procedure, shortened: as §1
# [4] = target: Fuc(a1-3)[GalNAc(b1-4)]GlcNAc6S
# Procedure, shortened: as §1
# [5] = target: Fuc(a1-4)GlcNAc
# Procedure, shortened: as §1
# [6] = target: Fuc(b1-3)GlcNAc
# Procedure, shortened: as §1
# [7] = target: Gal(a1-2)Gal
# Procedure, shortened: as §1
# [8] = target: Gal(a1-3)Gal
# Procedure, shortened: as §1
# [9] = target: Gal(a1-3)Gal(b1-3)GlcNAc
# Procedure, shortened: as §1
# [10] = target: Gal(a1-3)Gal(b1-3)GlcNAc(b1-2)Man
# Procedure, shortened: as §1
# [11] = target: Gal(a1-3)Gal(b1-3)GlcNAc(b1-2)Man(a1-3)[Gal(a1-3)Gal(b1-3)GlcNAc(b1-2)Man(a1-6)]Man(b1-4)GlcNAc(b1-4)GlcNAc
# Procedure, shortened: as §1
# [12] = target: Gal(a1-3)Gal(b1-3)GlcNAc(b1-3)GalNAc
# Procedure, shortened: as §1
# [13] = target: Gal(a1-3)Gal(b1-3)GlcNAc(b1-6)GalNAc
# Procedure, shortened: as §1
# [14] = target: Gal(a1-3)Gal(b1-3)[Fuc(a1-4)]GlcNAc(b1-2)Man(a1-3)[Gal(a1-3)Gal(b1-3)[Fuc(a1-4)]GlcNAc(b1-2)Man(a1-6)]Man(b1-4)GlcNAc(b1-4)GlcNAc
# Procedure, shortened: as §1
# [15] = target: Gal(a1-3)Gal(b1-4)Glc
# Procedure, shortened: as §1
# [16] = target: Gal(a1-3)Gal(b1-4)GlcNAc
# Procedure, shortened: as §1
# [17] = target: Gal(a1-3)Gal(b1-4)GlcNAc(b1-2)Man
# Procedure, shortened: as §1
# [18] = target: Gal(a1-3)Gal(b1-4)GlcNAc(b1-2)Man(a1-3)[Gal(a1-3)Gal(b1-4)GlcNAc(b1-2)Man(a1-6)]Man(b1-4)GlcNAc(b1-4)GlcNAc
# Procedure, shortened: as §1
# [19] = target: Gal(a1-3)Gal(b1-4)GlcNAc(b1-3)GalNAc
# Procedure, shortened: as §1
# [20] = target: Gal(a1-3)Gal(b1-4)GlcNAc(b1-6)GalNAc
# Procedure, shortened: as §1
# [21] = target: Gal(a1-3)Gal(b1-4)[Fuc(a1-3)]GlcNAc
# Procedure, shortened: as §1
# [22] = target: Gal(a1-3)Gal(b1-4)[Fuc(a1-3)]GlcNAc(b1-2)Man(a1-3)[Gal(a1-3)Gal(b1-4)[Fuc(a1-3)]GlcNAc(b1-2)Man(a1-6)]Man(b1-4)GlcNAc(b1-4)GlcNAc
# Procedure, shortened: as §1
# [23] = target: Gal(a1-3)GalNAc
# Procedure, shortened: as §1
# [24] = target: Gal(a1-3)[Gal(a1-4)]Gal(b1-4)GlcNAc
# Procedure, shortened: as §1
# [25] = target: Gal(a1-4)Gal(b1-3)GlcNAc(b1-2)Man(a1-3)[Gal(a1-4)Gal(b1-3)GlcNAc(b1-2)Man(a1-6)]Man(b1-4)GlcNAc(b1-4)GlcNAc
# Procedure, shortened: as §1
# [26] = target: Gal(a1-4)Gal(b1-4)Glc
# Procedure, shortened: as §1
# [27] = target: Gal(a1-4)Gal(b1-4)GlcNAc
# Procedure, shortened: as §1
# [28] = target: Gal(a1-4)Gal(b1-4)GlcNAc(b1-2)Man(a1-3)[Gal(a1-4)Gal(b1-4)GlcNAc(b1-2)Man(a1-6)]Man(b1-4)GlcNAc(b1-4)GlcNAc
# Procedure, shortened: as §1
# [29] = target: Gal(a1-4)Gal(b1-4)GlcNAc(b1-3)Gal(b1-4)Glc
# Procedure, shortened: as §1
# [30] = target: Gal(a1-4)GlcNAc
# Procedure, shortened: as §1
# [31] = target: Gal(a1-6)Glc
# Procedure, shortened: as §1
# [32] = target: Gal(b1-2)Gal
# Procedure, shortened: as §1
# [33] = target: Gal(b1-3)Gal
# Procedure, shortened: as §1
# [34] = target: Gal(b1-3)Gal(b1-4)GlcNAc
# Procedure, shortened: as §1
# [35] = target: Gal(b1-3)GalNAc
# Procedure, shortened: as §1
# [36] = target: Gal(b1-3)GalNAc(a1-3)[Fuc(a1-2)]Gal(b1-4)Glc
# Procedure, shortened: as §1
# [37] = target: Gal(b1-3)GalNAc(a1-3)[Fuc(a1-2)]Gal(b1-4)GlcNAc
# Procedure, shortened: as §1
binder,measurement,setting,value
B1,glycan array binding signal (z-score),[1],1.11
same,glycan array binding signal (z-score),[2],0.56
same,glycan array binding signal (z-score),[3],-0.34
same,glycan array binding signal (z-score),[4],0.757
same,glycan array binding signal (z-score),[5],0.308
same,glycan array binding signal (z-score),[6],-0.708
same,glycan array binding signal (z-score),[7],-0.446
same,glycan array binding signal (z-score),[8],-0.173
same,glycan array binding signal (z-score),[9],-0.912
same,glycan array binding signal (z-score),[10],-0.845
same,glycan array binding signal (z-score),[11],0.731
same,glycan array binding signal (z-score),[12],-0.25
same,glycan array binding signal (z-score),[13],-0.205
same,glycan array binding signal (z-score),[14],0.374
same,glycan array binding signal (z-score),[15],-0.44
same,glycan array binding signal (z-score),[16],-0.449
same,glycan array binding signal (z-score),[17],-0.502
same,glycan array binding signal (z-score),[18],0.023
same,glycan array binding signal (z-score),[19],-0.286
same,glycan array binding signal (z-score),[20],-0.814
same,glycan array binding signal (z-score),[21],-0.521
same,glycan array binding signal (z-score),[22],-0.164
same,glycan array binding signal (z-score),[23],-0.41
same,glycan array binding signal (z-score),[24],-0.245
same,glycan array binding signal (z-score),[25],0.497
same,glycan array binding signal (z-score),[26],0.591
same,glycan array binding signal (z-score),[27],0.214
same,glycan array binding signal (z-score),[28],1.09
same,glycan array binding signal (z-score),[29],-1.22
same,glycan array binding signal (z-score),[30],0.12
same,glycan array binding signal (z-score),[31],-0.979
same,glycan array binding signal (z-score),[32],-0.659
same,glycan array binding signal (z-score),[33],1.02
same,glycan array binding signal (z-score),[34],-0.35
same,glycan array binding signal (z-score),[35],0.216
same,glycan array binding signal (z-score),[36],-0.312
same,glycan array binding signal (z-score),[37],-0.456

# 2 entries drawn at random from the list so far:
binder,measurement,setting,value
B1,glycan array binding signal (z-score),[1],1.11
same,glycan array binding signal (z-score),[15],-0.44
